Data on 3 molecules can be found in US8460664 (ACADEMIA SINICA, dated 2013).

The chains behind the UniProt entries cited, without tags or fusion partners. Residues count along the entry.
UniProt P01854, residues 104-546: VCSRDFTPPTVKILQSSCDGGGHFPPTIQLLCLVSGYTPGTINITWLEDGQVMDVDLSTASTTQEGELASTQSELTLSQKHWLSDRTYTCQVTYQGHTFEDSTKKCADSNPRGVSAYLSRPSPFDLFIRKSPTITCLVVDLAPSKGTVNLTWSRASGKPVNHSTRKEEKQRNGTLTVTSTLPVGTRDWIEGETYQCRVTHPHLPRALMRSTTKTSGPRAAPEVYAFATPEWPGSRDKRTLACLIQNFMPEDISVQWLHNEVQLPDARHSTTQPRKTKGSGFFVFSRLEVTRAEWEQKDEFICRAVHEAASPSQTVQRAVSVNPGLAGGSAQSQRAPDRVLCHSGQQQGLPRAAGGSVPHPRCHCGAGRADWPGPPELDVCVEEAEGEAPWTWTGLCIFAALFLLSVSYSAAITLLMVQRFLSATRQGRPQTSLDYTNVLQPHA

These are yes or no findings as the source states them, for the method shown. Some binding calls cover weakened binding; strength is not graded here.

Assay [1] addresses T1, mIgE.FcL on transfected Ramos cells (human, UniProt P01854 104-546, limits assumed). The experiment in a line: flow cytometry, hybridoma supernatants on transfected Ramos cells.
Assay [2] has as its target T1, mIgE.FcL on transfected Ramos cells. The experiment in a line: binding to mIgE-expressing B cells, compared with a20.
Assay [3] has as its target mIgE.FcL on transfected CHO cells (human) (UniProt P01854). Put plainly: flow cytometry, hybridoma supernatants on transfected CHO cells.
Assay [4] concerns the target T1, mIgE.FcL on transfected Ramos cells. Put plainly: method not described.

B1: mouse monoclonal antibody 4B12 (antibody, V domains shown)
VH: DVQLQESGPGLVKPSQSLSLTCTVTGYSITSDYAWNWIRQFPGNKLEWMGSISYSGITGYNPSLKSRISVTRDTSKNQFFLQLNSVTTEDTATYYCARMGYDGLAYWGHGTTVTVSA
VL: DVLMTQTPLSLPVSLGDQASISCRSSQSIVHSNGNTYLEWYLQKPGQSPKLLIYKVSNRFSGVPDRFSGSGSGTDFTFKISRVEAEDLGVYYCFQGSHVPPTFGGGTKLEIKR
notes: Mouse hybridoma IgG, detected with anti-mouse IgG; also called parental mouse 4B12
Turning to B1, the binding result in assay [1], in assay [2] and in assay [3] was “binds” in each case.

B2: chimeric 4B12 (antibody, V domains shown)
VH: B1 VH
VL: B1 VL
As for B2, the binding result in assay [4] is reported as “binds”.

B3: humanized 4B12 (antibody, V domains shown)
VH: QVQLQESGPGLVKPSETLSLTCTVSGYSITSDYAWNWIRQPPGKGLEWMISISYSGITGYNPSLKSRVTISVDTSKNQFSLKLSSVTAADTAVYYCARMGYDGLAYWGQGTLVTVSS
VL: DIVMTQTPLSLSVTPGQPASISCRSSQSIVHSNGNTYLEWYLQKPGQSPQLLIYKVSNRFSGVPDRFSGSGSGTDFTLKISRVEAEDVGVYYCFQGSHVPPTFGGGTKVEIKR
Turning to B3, in assay [4], the binding result is recorded as “binds”.
